Measured values published in patent publication US10653173B2, “Method for masking unpleasant taste” (Analyticon Discovery GmbH, priority 2015, dated 2020).

Experiment: Sensory panel: natural taste of dehydroabietic acid and extracts, sip and spit
Assay type: in vivo, human
Details: pH neutral

## CC(C)c1ccc2c(c1)CC[C@H]1[C@](C)(C(=O)O)CCC[C@]21C [dehydroabietic acid]
10 μM in 0.5% ethanol
  Evaluation (descriptive taste): neutral
50 μM in 0.5% ethanol
  Evaluation (descriptive taste): astringent, dry, slightly metallic taste
3 mg/l, ethanol below 0.5%
  Evaluation (descriptive taste): neutral
7.5 mg/l, ethanol below 0.5%
  Evaluation (descriptive taste): neutral
